The results in this text go back to paper doi:10.1101/2024.09.27.615457 (bioRxiv, 2024).

These are yes or no findings as the source states them, for the method shown. In cells and extracts the contact can be indirect. These calls come from enrichment with a bait or labelling near it, and not all partners need be listed. Tags and fused reporters may be left off the sequences shown.

For assay [1], the target named is T1, HA-tagged bHLH107 (35S::bHLH107-HA in Col-0) (Arabidopsis) (UniProt Q9LET0).
T1 sequence: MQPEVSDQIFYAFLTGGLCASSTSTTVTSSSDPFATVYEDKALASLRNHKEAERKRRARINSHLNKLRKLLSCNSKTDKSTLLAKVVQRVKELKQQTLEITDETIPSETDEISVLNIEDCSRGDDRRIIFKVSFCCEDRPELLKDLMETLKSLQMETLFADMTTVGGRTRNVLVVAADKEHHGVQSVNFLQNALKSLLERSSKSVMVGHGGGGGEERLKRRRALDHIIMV
Nature of the assay: affinity purification with mass spectrometry.

The target in assay [2] is T2, HA-tagged bHLH107 (35S::bHLH107-HA in Col-0) (Arabidopsis), Q9LET0.
T2 chain: T1 sequence
The experiment in a line: affinity purification with mass spectrometry. To be noted: remark: other sources report otherwise.

B1: GRF1 (14-3-3 protein), endogenous (protein, UniProt P42643 1-267)
chain: MATPGASSARDEFVYMAKLAEQAERYEEMVEFMEKVAKAVDKDELTVEERNLLSVAYKNVIGARRASWRIISSIEQKEESRGNDDHVSLIRDYRSKIETELSDICDGILKLLDTILVPAAASGDSKVFYLKMKGDYHRYLAEFKSGQERKDAAEHTLTAYKAAQDIANSELAPTHPIRLGLALNFSVFYYEILNSPDRACNLAKQAFDEAIAELDTLGEESYKDSTLIMQLLRDNLTLWTSDMQDDVADDIKEAAPAAAKPADEQQS
For B1, the binding result in assay [1] is “binds”.

B2: GRF2 (14-3-3 protein), endogenous (protein, UniProt Q01525 1-259)
chain: MASGREEFVYMAKLAEQAERYEEMVEFMEKVSAAVDGDELTVEERNLLSVAYKNVIGARRASWRIISSIEQKEESRGNDDHVTAIREYRSKIETELSGICDGILKLLDSRLIPAAASGDSKVFYLKMKGDYHRYLAEFKTGQERKDAAEHTLAAYKSAQDIANAELAPTHPIRLGLALNFSVFYYEILNSPDRACNLAKQAFDEAIAELDTLGEESYKDSTLIMQLLRDNLTLWTSDMQDDAADEIKEAAAPKPTEEQQ
B2: the binding entry in assay [1] was “binds”.

B3: GRF5 (14-3-3 protein), endogenous, P42645 1-268 (protein)
chain: MSSDSSREENVYLAKLAEQAERYEEMVEFMEKVAKTVETEELTVEERNLLSVAYKNVIGARRASWRIISSIEQKEDSRGNSDHVSIIKDYRGKIETELSKICDGILNLLEAHLIPAASLAESKVFYLKMKGDYHRYLAEFKTGAERKEAAESTLVAYKSAQDIALADLAPTHPIRLGLALNFSVFYYEILNSSDRACSLAKQAFDEAISELDTLGEESYKDSTLIMQLLRDNLTLWTSDLNDEAGDDIKEAPKEVQKVDEQAQPPPSQ
Turning to B3, the binding result in assay [2] was “binds”.
